# Results published in the supplement of paper PMC9135407.
# Values joined by “and” are separate entries in the source; they are usually repeats but may differ in a detail not shown here. Equal values may be shown once. Where a name gives a salt, the structure may show the parent alone. ± gives the standard deviation of the averaged measurements. Some of the results follow. Plates or batches differ in their baseline, so values are only roughly comparable.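 Culture-activated primary human stellate myofibroblasts, where regained lipid droplets signal inactivation. Value: share of Hoechst-counted cells above a per-plate Bodipy cutoff, in duplicate wells, with DMSO negative and nortriptyline positive controls on each plate. Hits: a control-normalized score above the plate's top-tenth-percentile nortriptyline wells, or one of a plate's three best wells. Final well concentrations are not given.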
# Test system: primary human hepatic stellate cells (donor 1)
# Experiment: percent Bodipy-positive cells; higher = more lipid droplet accumulation
# Settings: 48 h
# [1] = library stock concentration: 3.33 mM
# [2] = library stock concentration: 10 mM
# [3] = library stock concentration: 1 mM
# [4] = library stock concentration: 5 mM
structure (smiles),measurement,setting,value
CCN(c1cc(-c2ccc(CN3CCOCC3)cc2)cc(C(=O)NCc2c(C)cc(C)[nH]c2=O)c1C)C1CCOCC1,percent Bodipy-positive cells,[1],40.1 ± 4.3%
same,percent Bodipy-positive cells,[2],47.9 ± 4.1%
NC(N)=O,percent Bodipy-positive cells,[2],23.7 ± 6.4%
same,percent Bodipy-positive cells,library stock concentration: 33.3 mM,17.1 ± 7.8%
"CCCCC[C@H]1C=C[C@@H]2[C@@H](CC=CCCCC(=O)O1)[C@@H](O)C[C@H]2O [Prostaglandin F2.alpha. 1,15-lactone]",percent Bodipy-positive cells,[3],13.7 ± 6.3%
O=C1c2ccccc2S(=O)(=O)N1CCCCN1CCN(c2ncccn2)CC1 [Ipsapirone],percent Bodipy-positive cells,[2],8.67 ± 0.33%
O=C(O)/C(=C\c1c(C(=O)O)[nH]c2cc(Cl)cc(Cl)c12)c1ccccc1,percent Bodipy-positive cells,[2],28.2 ± 1.9%
CN(C)[C@@H]1C(O)=C(C(N)=O)C(=O)[C@@]2(O)C(O)=C3C(=O)c4c(O)ccc(Cl)c4[C@@H](O)[C@H]3C[C@@H]12 [Demeclocycline],percent Bodipy-positive cells,[2],27.9 ± 2.5%
CN(C)[C@@H]1C(O)=C(C(N)=O)C(=O)[C@@]2(O)C(O)=C3C(=O)c4c(O)ccc(Cl)c4[C@@H](O)[C@H]3C[C@@H]12 [Demeclocycline hydrochloride],percent Bodipy-positive cells,,6.96 ± 0.56%
same,percent Bodipy-positive cells,library stock concentration: 4 mM,2.23 ± 1.1%
same,percent Bodipy-positive cells,[2],9.6 ± 2.4%
O=C(O)CC1CC(c2ccccc2)=NO1 (stereo not given),percent Bodipy-positive cells,[1],32.5 ± 2.6%
same,percent Bodipy-positive cells,[2],34.6 ± 10%
CCCCCC(O)C=CC1CC2CC(C1CC=CCCCC(=O)O)C2(C)C [15(R)-Pinane Thromboxane A2],percent Bodipy-positive cells,[3],12 ± 7.2%
OC[C@H]1O[C@@H](O[C@@H]2[C@@H](CO)OC(O)(CO)[C@H]2O)[C@H](O)[C@@H](O)[C@H]1O (mixture of isomers) [Lactulose],percent Bodipy-positive cells,library stock concentration: 5.8 mM,1.66 ± 0.21%
same,percent Bodipy-positive cells,[2],23.4 ± 1.7%
O=C(O)CCCC=CCC1C2CCC(O2)C1CNNC(=O)Nc1ccccc1 (stereo not given),percent Bodipy-positive cells,[3],12.3% and 11.6%
COC[C@H](NC(=O)c1cnc(C)s1)C(=O)N[C@@H](COC)C(=O)N[C@@H](Cc1ccccc1)C(=O)[C@@]1(C)CO1 [Oprozomib (ONX 0912)],percent Bodipy-positive cells,[1],90.9 ± 5.3%
same,percent Bodipy-positive cells,[2],100%
Cc1cc(Nc2nc(N[C@@H](C)c3ncc(F)cn3)ncc2Cl)[nH]n1,percent Bodipy-positive cells,library stock concentration: 80 uM,19.6 ± 4.5%
same,percent Bodipy-positive cells,library stock concentration: 400 uM,28.2 ± 15%
same,percent Bodipy-positive cells,library stock concentration: 2 mM,15.1 ± 2%
same,percent Bodipy-positive cells,[1],12 ± 3%
same,percent Bodipy-positive cells,[2],31.1% and 14.4%
NCCS(=O)O [Hypotaurine],percent Bodipy-positive cells,[2],61.4 ± 27%
O=C(O)c1cc(O)c2ccc(Cl)cc2n1 [7-Chlorokynurenic acid],percent Bodipy-positive cells,[2],4.88 ± 1.7%
O=C(O)CCC/C=C\C[C@@H]1CO[C@H](C(F)(F)F)O[C@@H]1c1ccccc1O,percent Bodipy-positive cells,[2],7.29 ± 2.4%
COc1ccc(-c2cc(C(F)F)nn2-c2ccc(S(N)(=O)=O)cc2)cc1F [Deracoxib],percent Bodipy-positive cells,[4],11.1 ± 2.6%
CC(Oc1ccccc1)C(=O)N[C@@H]1C(=O)N2[C@@H]1SC(C)(C)[C@@H]2C(=O)O (stereo not given in full) [Phenethicillin potassium],percent Bodipy-positive cells,[4],12.4 ± 1.3%
CC(Oc1ccccc1)C(=O)N[C@@H]1C(=O)N2[C@@H]1SC(C)(C)[C@@H]2C(=O)O (stereo not given in full) [Phenethicillin potassium salt],percent Bodipy-positive cells,,6.07 ± 2%
